Consider one molecule from article PMC11032371.

No constants are given. Whether binding was seen depends on the method and setting. Binding seen in cells or lysates may run through a third protein. Some results given as binding are weak or reduced against the parent protein; the word gives no strength.

In the assay the target is T1, endogenous FADD (mouse (endogenous in MEFs)) (UniProt Q61160).
T1 sequence: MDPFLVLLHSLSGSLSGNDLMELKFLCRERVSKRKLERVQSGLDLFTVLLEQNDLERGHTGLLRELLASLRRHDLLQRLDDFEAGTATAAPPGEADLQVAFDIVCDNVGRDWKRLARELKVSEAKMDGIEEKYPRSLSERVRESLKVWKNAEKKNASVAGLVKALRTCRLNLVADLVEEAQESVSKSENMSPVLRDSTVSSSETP
Nature of the assay: co-IP; endogenous FADD immunoprecipitated from MEFs untreated or exposed to TNFα (10 ng/ml) and CHX (0.5 μg/ml) without or with z-VAD-fmk (20 μM) for 90 min.

B1: endogenous mouse N4BP1 (protein, UniProt Q6A037 1-893)
chain: MAARVVLDEFTAPAEKAALLERSRGRIEALFGVGLAVLGALGAEEPLPARIWLQLRGAQEAVHSAKEYIKGICEPELEEKECYPKAMHCIFVGAQSLFLKSLIQDTCADLCVLDTGLLGIRGSAEAVVMARSHIQQFVKLFESNENLPSNQRESEIKREFRQFVEAHADSYTMDLLILPTSLKKELLSLTQGEESLFETDDDVITVGDVRPPEYTQSAATGPSSARDEVVVQEDSRNKARTPVSELTKHMDTVFSSSPDVLFVPVNGLSPDEDALSKDRVCHKRRSSDTEERHTKKQFSLENVPEGELLPDGKGSAGNEVIDLSDPASNSTNLSPDGKDTTEEMEYNILVNFFKTMGYSQEIVEKVIREYGPSTEPLLLLEEIEKENKRLQEDRDFPPCTVYPDASQSRNAGVGSTTNELTADSTPKKAQSHTEQSMVERFSQLPFKDSKHCTSNCKVNSFRTVPVGQKQEIWGSKQNSSCTVDLETDGHSASAASASPKDISFVSRGASGHQQRNPAFPENGFQQQTEPLLPNNTKPACEKRSGSCSSPQPKPNYPPLSPPLPLPQLLPSVTEARLGGSSDHIDSSVTGVQRFRDTLKIPYKLELKNEPGRADLKHIVIDGSNVAITHGLKKFFSCRGIAIAVEYFWKLGNRNITVFVPQWRTRRDPNITEQHFLTQLQELGILSLTPARMVFGERIASHDDRFLLHLADKTGGIIVTNDNFREFVTESVSWREIITKRLLQYTFVGDIFMVPDDPLGRNGPRLEEFLRKEAFLRHMQPLLNALPSVGTFDPGFRSPSTQVANNSHQPPPRIQTSSSPWLPQQSHFTALATLPSMQQNPPLPAQRSSAETSELREALLKIFPDSEQKLKIDQILAAHPYMKDLNALSALVLD
In the case of B1, the binding result is “binds”.
